{
  "source": "patent US7074812B2",
  "about": "“Development of muscle mass in a mammal” (Nutraleutical Development Corporation, priority 2002, dated 2006)",
  "system": "healthy male mice",
  "details": "60 micrograms nicotine/ml drinking water",
  "data": [
    {"smiles": "CN1CCCC1c1cccnc1", "note": "(centres unmarked) [Nicotine, nicotine]", "values": [
      {"measurement": "change of food consumption over time", "result": "does not show significant change over time"},
      {"measurement": "food consumed less in days 15~21 compared to days 1~7", "setting": "control 30 grams less", "result": 6, "unit": "grams"}
    ]}
  ]
}
